Assay: general procedure: Fmoc solid-phase peptide synthesis
Settings: whole synthesis, 214 nm, TFA salt

Row | Substance | final HPLC purity
1 | H2N-DRVYIHPF-COOH | 97.30%
2 | H-DRVYIHPFHL-OH | 97.88%
